Assay results: patent US20170216340A1, “A Nucleoside Derivative For Use As A Drug, Particularly For The Treatment Of Chronic Lymphocytic Leukemia” (INSTYTUT BIOLOGII MEDYCZNEJ POLSKIEJ AKADEMII NAUK, priority 2014, published 2017)
At least one structure is not confirmed: it was looked up by name or label, or the drawing left a doubt.

Tested on: PARP-1, Bax, Bcl-2, Mcl-1
Assay: Western blot analysis of apoptosis-related proteins in CLL and PLL cells
Type: cell-based, human
Settings: cells from patient 1, 48 h, 15 μM
Protocol: The expression of apoptosis-related proteins was assessed in CLL and PLL cells exposed to the tested agents. All examined adenosine derivatives triggered proteolysis of PARP-1 full length protein (116 kDa) to its cleavage product (89 kDa), which is a known marker of apoptosis. Moreover, altered expression of pro-apoptotic (Bax) and anti-apoptotic proteins (Mcl-1, Bcl-2) from Bcl-2 family was also observed in purine derivative-treated leukemic cells. However, there were some individual differences between basal levels of these apoptotic regulators in model cells, as well as the changes in their cellular levels after the agent exposure were diverse. For instance, there were no significant alterations in Bax/Bcl-2 ratio in cell samples obtained from exemplary patient 1 exposed to the novel nucleosides.
Control PBMCs (without the agents), as well as the cells samples exposed to DMSO (vehicle control) and the tested agents were lysed (4° C., 1 h) in a buffer containing 10 mM Tris-HCl (pH 7.5), 300 mM NaCl, 1% Triton X-100, 2 mM MgCl2, 0.1 M DTT, and protease inhibitors as described previously (A., Kobylinska, J., Bednarek, J. Z., Blonski, M., Hanausek, Z., Walaszek, H., Piekarski, T., Robak, Z. M., Kilianska. 2006. In vitro sensitivity of B-cell chronic lymphocytic leukemia to cladribine and its combinations with mafosfamide and/or mitoxantrone, Oncol. Rep., 16, 1389-1395). […]

Structure (SMILES): Nc1nc(F)nc2c1ncn2[C@@H]1O[C@H](CO)[C@@H](O)[C@@H]1O [fludarabine]
- Bax expression level: essential increase
- Bcl-2 protein level: diminution
